Measured values reported in publication PMC10957977.
Results are given in words; binding and its absence hold for the method and conditions named. In cells and extracts the contact can be indirect. Here binding means that the protein was enriched with, or labelled near, the bait; the list need not be complete.

Chains of the proteins cited; added tags and fusions are not shown.
UniProt O15372: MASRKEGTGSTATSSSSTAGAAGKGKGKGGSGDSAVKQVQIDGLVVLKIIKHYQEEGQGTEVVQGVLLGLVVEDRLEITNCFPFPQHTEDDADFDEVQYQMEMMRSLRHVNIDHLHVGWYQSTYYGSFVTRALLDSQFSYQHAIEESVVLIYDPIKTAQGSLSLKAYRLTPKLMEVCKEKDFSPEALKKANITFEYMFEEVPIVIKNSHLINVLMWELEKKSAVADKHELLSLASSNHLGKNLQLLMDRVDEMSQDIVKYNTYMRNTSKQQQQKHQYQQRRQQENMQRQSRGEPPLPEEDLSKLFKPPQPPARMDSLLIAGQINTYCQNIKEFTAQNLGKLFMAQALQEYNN
UniProt Q9Y297: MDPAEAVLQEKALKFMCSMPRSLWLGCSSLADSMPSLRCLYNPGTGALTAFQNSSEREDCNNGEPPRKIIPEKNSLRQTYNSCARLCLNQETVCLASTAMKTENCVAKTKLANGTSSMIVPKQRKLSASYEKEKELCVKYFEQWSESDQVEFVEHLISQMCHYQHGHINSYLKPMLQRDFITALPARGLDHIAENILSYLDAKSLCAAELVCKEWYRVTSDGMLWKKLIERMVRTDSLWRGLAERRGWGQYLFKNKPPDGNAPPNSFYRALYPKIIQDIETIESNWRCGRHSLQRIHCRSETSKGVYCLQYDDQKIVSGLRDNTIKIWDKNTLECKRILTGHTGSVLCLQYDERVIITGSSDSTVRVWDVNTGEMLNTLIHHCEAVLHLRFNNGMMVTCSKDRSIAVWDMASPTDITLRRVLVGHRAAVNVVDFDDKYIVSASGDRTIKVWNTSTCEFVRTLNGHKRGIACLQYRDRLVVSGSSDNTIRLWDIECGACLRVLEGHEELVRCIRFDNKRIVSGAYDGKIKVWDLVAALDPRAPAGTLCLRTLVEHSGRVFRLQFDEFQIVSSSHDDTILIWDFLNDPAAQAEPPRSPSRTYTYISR
UniProt P60228: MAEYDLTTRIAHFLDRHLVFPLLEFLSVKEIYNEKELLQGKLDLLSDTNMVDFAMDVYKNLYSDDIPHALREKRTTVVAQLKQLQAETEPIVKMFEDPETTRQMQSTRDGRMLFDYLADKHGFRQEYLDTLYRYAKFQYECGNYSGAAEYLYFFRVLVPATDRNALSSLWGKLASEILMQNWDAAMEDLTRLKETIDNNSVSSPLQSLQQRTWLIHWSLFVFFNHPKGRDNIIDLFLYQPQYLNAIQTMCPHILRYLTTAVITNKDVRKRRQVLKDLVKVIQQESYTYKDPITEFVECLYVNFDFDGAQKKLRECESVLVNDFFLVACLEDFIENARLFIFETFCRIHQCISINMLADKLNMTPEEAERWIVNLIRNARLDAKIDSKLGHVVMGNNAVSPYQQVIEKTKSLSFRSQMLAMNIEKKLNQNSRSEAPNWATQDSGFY

Tests used:
[1] = target: Flag-tagged EIF3H (stably expressed in HCT116) (UniProt O15372); test: affinity purification with mass spectrometry; HCT116 cells stably expressing Flag-tagged EIF3H or HAX1, lysed in NP-40 buffer; anti-Flag M2 beads; eluate on SDS-PAGE, LC-MS/MS
[2] = target: Flag-tagged HAX1 (stably expressed in HCT116) (UniProt O00165); test: as above

Question: “HAX1 (HS1 associated protein X-1), endogenous in HCT116 (from UniProt O00165 1-279)” was tested. Which binding [1] did it give?
Answer: Its binding is “binds”.

Question: For “βTrCP, endogenous in HCT116 (from UniProt Q9Y297 1-605)”, which binding [2] is on record?
Answer: The binding was “binds”.

Question: With “EIF3E, endogenous in HCT116 (from UniProt P60228 1-445)” as the substance, how does the binding [1] read?
Answer: The binding was “binds”.

Question: Which binding [2] does the source give for “RAF1, endogenous in HCT116 (from UniProt P04049 1-648)” here?
Answer: The binding was “binds”.
